Measurements as given in patent US20110275699A1, “Treatment For Obesity And Diabetes” (University of California, priority 2010, published 2011).
These are yes or no findings as the source states them, for the method shown. In cells and extracts the contact can be indirect. Some entries that bind do so weakly or less than the wild type.

By UniProt entry, the sequences of proteins in these tests, tags left out. Residues count along the entry.
UniProt Q9UKV0: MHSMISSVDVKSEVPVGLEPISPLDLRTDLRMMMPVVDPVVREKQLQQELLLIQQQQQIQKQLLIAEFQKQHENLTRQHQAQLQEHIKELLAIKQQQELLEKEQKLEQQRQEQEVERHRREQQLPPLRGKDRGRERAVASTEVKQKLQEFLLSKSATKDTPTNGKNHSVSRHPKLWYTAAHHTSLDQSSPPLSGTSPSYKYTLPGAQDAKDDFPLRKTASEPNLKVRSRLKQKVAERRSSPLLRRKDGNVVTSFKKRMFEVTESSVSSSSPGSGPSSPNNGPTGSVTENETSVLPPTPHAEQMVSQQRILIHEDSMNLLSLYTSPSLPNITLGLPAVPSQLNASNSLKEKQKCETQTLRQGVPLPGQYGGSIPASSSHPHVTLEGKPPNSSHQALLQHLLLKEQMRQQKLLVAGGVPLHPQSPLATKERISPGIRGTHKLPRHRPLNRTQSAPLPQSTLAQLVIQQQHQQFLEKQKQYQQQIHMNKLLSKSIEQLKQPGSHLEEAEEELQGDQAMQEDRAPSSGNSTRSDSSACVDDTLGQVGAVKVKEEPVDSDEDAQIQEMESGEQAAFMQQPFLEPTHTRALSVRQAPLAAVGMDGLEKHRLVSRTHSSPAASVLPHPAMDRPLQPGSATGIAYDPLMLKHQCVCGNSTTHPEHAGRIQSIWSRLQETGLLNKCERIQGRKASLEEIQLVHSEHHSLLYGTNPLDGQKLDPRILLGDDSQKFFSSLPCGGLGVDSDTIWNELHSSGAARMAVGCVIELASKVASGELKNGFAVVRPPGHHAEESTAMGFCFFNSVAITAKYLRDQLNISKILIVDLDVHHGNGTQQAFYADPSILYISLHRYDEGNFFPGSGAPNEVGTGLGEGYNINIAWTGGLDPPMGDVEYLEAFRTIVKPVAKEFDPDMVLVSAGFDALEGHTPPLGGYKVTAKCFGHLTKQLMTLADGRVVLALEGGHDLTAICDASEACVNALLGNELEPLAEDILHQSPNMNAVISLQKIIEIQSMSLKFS
UniProt Q92831: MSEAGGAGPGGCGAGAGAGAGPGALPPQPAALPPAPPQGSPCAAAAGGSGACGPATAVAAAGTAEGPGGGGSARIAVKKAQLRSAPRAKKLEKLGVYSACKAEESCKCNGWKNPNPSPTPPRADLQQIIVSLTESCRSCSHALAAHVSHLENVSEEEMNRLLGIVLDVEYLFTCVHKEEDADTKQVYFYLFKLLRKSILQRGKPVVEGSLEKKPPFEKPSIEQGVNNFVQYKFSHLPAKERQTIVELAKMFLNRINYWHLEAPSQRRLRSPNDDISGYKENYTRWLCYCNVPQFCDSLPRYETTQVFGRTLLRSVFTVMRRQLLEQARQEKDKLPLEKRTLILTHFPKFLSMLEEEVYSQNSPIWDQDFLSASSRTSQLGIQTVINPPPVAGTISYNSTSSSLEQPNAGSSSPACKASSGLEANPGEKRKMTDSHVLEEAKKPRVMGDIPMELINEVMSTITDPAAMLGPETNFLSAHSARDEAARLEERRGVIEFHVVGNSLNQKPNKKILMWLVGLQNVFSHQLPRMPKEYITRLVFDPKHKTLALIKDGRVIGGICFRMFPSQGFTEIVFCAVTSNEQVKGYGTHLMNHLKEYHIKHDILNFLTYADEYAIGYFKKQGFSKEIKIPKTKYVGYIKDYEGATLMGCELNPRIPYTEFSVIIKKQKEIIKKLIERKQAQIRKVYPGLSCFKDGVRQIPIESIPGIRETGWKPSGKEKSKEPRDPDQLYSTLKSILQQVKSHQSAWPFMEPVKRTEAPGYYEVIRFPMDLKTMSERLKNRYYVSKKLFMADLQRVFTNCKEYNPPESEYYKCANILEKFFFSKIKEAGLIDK
bHLH domain of USF-1 (P22415, residues 199-254): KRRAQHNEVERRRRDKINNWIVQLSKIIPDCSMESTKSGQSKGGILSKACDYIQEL
leucine zipper (LZ) domain of USF-1 (P22415, residues 261-310): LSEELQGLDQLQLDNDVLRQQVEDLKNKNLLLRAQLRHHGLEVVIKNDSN

Experiments:
[1] = molecular target: HDAC9, in vitro translated 35S-labeled (UniProt Q9UKV0); assay: GST pull-down of USF-1 domains with in vitro translated 35S-labeled protein
[2] = molecular target: P/CAF, in vitro translated 35S-labeled (UniProt Q92831); assay: as above

binding [1] | binding [2] | Substance
binds |  | leucine zipper (LZ) domain of USF-1 (from UniProt P22415 261-310)
 | binds | bHLH domain of USF-1 (from UniProt P22415 199-254)
